This is an account of results in publication PMC7255043.

The chains behind the UniProt entries cited, without tags or fusion partners.
UniProt Q13177: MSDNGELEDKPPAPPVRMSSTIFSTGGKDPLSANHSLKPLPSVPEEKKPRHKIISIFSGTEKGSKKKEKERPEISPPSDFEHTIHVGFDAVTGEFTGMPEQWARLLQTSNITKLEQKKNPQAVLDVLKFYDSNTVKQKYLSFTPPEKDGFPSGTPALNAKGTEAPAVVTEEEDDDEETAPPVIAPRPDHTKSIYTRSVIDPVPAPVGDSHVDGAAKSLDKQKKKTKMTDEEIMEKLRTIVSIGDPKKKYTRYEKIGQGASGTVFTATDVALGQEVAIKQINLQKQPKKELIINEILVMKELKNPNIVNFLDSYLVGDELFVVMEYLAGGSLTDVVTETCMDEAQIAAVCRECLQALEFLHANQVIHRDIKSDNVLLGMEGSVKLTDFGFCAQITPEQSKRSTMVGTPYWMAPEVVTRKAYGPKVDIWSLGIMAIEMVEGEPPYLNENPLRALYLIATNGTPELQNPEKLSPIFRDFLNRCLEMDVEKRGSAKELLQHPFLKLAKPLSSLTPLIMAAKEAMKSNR
UniProt Q9H2G2: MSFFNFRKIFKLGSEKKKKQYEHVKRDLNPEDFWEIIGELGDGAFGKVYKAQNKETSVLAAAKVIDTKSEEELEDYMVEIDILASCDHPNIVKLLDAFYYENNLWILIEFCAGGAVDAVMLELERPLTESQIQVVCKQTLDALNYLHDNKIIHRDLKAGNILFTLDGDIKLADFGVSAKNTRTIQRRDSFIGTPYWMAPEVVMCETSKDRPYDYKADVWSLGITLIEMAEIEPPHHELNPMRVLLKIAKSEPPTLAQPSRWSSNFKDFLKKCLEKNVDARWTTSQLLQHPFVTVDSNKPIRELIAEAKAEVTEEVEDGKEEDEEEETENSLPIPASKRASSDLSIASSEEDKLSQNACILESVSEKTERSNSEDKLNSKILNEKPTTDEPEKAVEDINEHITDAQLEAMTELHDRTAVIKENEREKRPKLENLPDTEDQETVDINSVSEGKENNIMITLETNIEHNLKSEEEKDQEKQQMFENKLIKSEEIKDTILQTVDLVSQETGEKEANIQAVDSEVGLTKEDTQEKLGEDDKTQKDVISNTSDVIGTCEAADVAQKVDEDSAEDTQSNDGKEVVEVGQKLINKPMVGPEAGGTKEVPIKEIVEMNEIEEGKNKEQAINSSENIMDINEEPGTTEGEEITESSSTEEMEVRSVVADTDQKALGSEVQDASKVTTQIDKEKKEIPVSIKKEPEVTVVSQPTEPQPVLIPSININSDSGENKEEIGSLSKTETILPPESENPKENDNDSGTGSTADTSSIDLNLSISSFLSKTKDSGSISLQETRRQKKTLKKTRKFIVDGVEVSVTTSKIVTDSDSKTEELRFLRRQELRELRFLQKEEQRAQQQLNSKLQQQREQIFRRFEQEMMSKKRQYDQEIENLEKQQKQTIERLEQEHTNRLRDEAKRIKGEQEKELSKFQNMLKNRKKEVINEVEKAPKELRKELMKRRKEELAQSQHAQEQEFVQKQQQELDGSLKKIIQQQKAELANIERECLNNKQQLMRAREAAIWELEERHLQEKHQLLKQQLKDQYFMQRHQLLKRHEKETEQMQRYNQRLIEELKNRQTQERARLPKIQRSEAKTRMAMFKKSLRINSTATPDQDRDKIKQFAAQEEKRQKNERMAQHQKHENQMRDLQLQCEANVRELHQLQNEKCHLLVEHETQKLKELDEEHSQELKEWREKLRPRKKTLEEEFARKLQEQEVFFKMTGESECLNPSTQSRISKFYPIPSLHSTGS
UniProt Q92878: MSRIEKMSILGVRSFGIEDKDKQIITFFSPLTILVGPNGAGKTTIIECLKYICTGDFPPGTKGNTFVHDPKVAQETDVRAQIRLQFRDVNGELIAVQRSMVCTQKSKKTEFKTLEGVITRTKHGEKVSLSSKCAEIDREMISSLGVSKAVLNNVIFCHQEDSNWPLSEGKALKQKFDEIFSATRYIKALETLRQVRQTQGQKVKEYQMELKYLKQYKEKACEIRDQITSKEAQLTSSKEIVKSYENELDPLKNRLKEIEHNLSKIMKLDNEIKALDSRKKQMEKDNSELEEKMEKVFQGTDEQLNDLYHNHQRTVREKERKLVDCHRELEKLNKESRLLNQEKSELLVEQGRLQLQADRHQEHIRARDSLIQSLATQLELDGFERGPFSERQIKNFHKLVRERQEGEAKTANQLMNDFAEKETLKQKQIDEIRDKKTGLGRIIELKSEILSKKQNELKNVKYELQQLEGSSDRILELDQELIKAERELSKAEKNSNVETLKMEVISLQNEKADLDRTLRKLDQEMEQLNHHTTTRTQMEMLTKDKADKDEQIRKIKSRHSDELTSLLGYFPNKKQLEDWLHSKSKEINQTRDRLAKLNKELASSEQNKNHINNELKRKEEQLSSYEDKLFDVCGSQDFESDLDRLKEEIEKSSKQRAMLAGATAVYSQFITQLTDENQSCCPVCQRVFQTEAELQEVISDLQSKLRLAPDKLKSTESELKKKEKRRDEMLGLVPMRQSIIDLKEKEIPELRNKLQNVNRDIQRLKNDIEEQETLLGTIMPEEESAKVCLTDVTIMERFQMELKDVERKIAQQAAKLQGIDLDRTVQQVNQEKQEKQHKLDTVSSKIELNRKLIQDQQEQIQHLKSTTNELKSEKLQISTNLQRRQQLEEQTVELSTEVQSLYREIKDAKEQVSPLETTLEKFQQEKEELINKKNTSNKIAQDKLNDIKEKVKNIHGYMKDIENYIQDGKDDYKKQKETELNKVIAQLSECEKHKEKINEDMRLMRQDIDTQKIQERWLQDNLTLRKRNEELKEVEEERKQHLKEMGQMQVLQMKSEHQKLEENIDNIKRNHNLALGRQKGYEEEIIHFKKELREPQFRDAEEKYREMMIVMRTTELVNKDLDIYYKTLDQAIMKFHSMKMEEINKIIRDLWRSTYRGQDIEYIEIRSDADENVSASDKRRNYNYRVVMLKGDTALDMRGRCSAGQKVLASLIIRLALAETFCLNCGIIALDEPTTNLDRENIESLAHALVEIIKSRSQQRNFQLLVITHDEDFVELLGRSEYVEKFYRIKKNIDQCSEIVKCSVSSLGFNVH

No constants are given. Whether binding was seen depends on the method and setting. Binding seen in cells or lysates may run through a third protein. These calls come from enrichment with a bait or labelling near it, and not all partners need be listed.

B1: HK1 (protein, UniProt P19367 1-917)
chain: MIAAQLLAYYFTELKDDQVKKIDKYLYAMRLSDETLIDIMTRFRKEMKNGLSRDFNPTATVKMLPTFVRSIPDGSEKGDFIALDLGGSSFRILRVQVNHEKNQNVHMESEVYDTPENIVHGSGSQLFDHVAECLGDFMEKRKIKDKKLPVGFTFSFPCQQSKIDEAILITWTKRFKASGVEGADVVKLLNKAIKKRGDYDANIVAVVNDTVGTMMTCGYDDQHCEVGLIIGTGTNACYMEELRHIDLVEGDEGRMCINTEWGAFGDDGSLEDIRTEFDREIDRGSLNPGKQLFEKMVSGMYLGELVRLILVKMAKEGLLFEGRITPELLTRGKFNTSDVSAIEKNKEGLHNAKEILTRLGVEPSDDDCVSVQHVCTIVSFRSANLVAATLGAILNRLRDNKGTPRLRTTVGVDGSLYKTHPQYSRRFHKTLRRLVPDSDVRFLLSESGSGKGAAMVTAVAYRLAEQHRQIEETLAHFHLTKDMLLEVKKRMRAEMELGLRKQTHNNAVVKMLPSFVRRTPDGTENGDFLALDLGGTNFRVLLVKIRSGKKRTVEMHNKIYAIPIEIMQGTGEELFDHIVSCISDFLDYMGIKGPRMPLGFTFSFPCQQTSLDAGILITWTKGFKATDCVGHDVVTLLRDAIKRREEFDLDVVAVVNDTVGTMMTCAYEEPTCEVGLIVGTGSNACYMEEMKNVEMVEGDQGQMCINMEWGAFGDNGCLDDIRTHYDRLVDEYSLNAGKQRYEKMISGMYLGEIVRNILIDFTKKGFLFRGQISETLKTRGIFETKFLSQIESDRLALLQVRAILQQLGLNSTCDDSILVKTVCGVVSRRAAQLCGAGMAAVVDKIRENRGLDRLNVTVGVDGTLYKLHPHFSRIMHQTVKELSPKCNVSFLLSEDGSGKGAALITAVGVRLRTEASS

For this test, the target named is cyclin-dependent kinase 12 (human (endogenous in SNU-1)) (UniProt Q9NYV4). Briefly: affinity purification with mass spectrometry; SNU-1 cell lysates incubated with normal IgG or anti-CDK12 antibody; complex pulled down by Protein A/G beads, SDS/PAGE, trypsin digestion, mass spectrometry.
As to “p21 activated kinase 2 (from UniProt Q13177 1-524)”, the binding result is “binds”.

On to EGFR (from UniProt P00533 25-1210), for which the binding entry was “binds”.

Turning to SLK (from UniProt Q9H2G2 1-1235), the binding entry is reported as “binds”.

With RAD50 (from UniProt Q92878 1-1312), the binding result is given as “binds”.

As for B1, the binding result is given as “binds”.
